# Results are given in words; binding and its absence hold for the method and conditions named. Some binding calls cover weakened binding; strength is not graded here.
# The chains behind the UniProt entries cited, without tags or fusion partners.
# UniProt P37871: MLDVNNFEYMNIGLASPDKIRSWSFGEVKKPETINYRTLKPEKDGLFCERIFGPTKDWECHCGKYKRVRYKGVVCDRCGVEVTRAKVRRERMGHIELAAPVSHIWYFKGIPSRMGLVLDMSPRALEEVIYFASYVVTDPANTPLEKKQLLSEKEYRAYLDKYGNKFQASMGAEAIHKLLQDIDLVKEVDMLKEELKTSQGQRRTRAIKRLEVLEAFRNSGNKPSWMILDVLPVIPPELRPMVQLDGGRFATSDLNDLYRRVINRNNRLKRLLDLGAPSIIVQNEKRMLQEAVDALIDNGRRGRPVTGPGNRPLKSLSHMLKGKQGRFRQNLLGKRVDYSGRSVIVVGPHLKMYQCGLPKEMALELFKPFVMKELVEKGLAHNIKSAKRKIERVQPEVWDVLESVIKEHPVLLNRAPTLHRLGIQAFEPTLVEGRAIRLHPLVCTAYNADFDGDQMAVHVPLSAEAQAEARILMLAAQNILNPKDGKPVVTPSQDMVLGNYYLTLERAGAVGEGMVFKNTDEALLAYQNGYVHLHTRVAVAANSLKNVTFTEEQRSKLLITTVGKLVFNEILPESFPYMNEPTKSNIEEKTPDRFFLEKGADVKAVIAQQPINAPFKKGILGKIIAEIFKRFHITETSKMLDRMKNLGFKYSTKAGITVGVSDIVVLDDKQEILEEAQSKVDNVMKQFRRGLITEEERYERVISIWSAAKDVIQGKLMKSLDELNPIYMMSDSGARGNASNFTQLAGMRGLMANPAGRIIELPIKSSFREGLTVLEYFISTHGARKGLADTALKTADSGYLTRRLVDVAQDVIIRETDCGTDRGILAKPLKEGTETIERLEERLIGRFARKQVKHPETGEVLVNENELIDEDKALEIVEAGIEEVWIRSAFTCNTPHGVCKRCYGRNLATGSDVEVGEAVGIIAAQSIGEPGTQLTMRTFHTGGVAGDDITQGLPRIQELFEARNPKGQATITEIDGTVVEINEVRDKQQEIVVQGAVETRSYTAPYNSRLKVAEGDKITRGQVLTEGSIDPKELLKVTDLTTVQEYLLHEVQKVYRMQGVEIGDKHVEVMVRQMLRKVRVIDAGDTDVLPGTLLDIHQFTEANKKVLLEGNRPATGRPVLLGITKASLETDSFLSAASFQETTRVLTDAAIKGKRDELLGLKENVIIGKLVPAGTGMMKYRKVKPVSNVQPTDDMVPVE
# Molecular target: RNAP β′ subunit with chromosomally encoded C-terminal His10-tag (B. subtilis) (UniProt P37871)
# Assay: co-purification; RNAP captured from lysates of stationary phase B. subtilis by the C-terminal His10-tag on β′ (Ni-NTA), then heparin column and SEC, 4 °C; content of the fractions told from gels (strains MH5636, LK782, LK1032)
row,Binder,binding
1,"PriA, co-purified with RNAP (protein, UniProt P94461 1-805) MNFAEVIVDVSTKNIDRPFDYKIPDHLKGMIKTGMRVIVPFGPRKIQGFVTAVKEASDLSGKSVKEVEDLLDLTPVLTEELMILSSWLSDKTLSFKITALQAMLPAALKAKYEKELKIAHGADLPPQVERLFSETKTLLYSDIPDHETLKLIQRHVQKGDIDVTYKVAQKTNKKMVRHIQANASKEELAKQAEGLSRQAAKQQAILHFLISEPEGVKIPAAELCKKTDTSSATIKTLIQKGLLKESYEEVYRDPYQDKMFKKTEPLPLTDEQRAAFEPIRETLDSDEHKVFLLHGVTGSGKTEIYLQSIEKVLAKGKEAIVLVPEISLTPQMVNRFKGRFGSQVAVMHSGLSTGEKYDEWRKIHRKEVRLVVGARSAIFAPFENLGMIIIDEEHESSYKQEEMPRYHAKEVAIKRAEHHSCPVVLGSATPTLESYARAQKGVYELLSLKHRVNHRVMPEVSLVDMREELRNGNRSMFSVELMEKLEETIAKGEQAVLFLNKRGYSSFVMCRDCGYVPQCPHCDISMTYHRYGQRLKCHYCGHEEPVPHTCPECASEHIRFFGTGTQRVEEELTKVLPSARVIRMDVDTTSRKGAHEKLLSAFGEGKADILLGTQMIAKGLDFPNVTLVGVLSADTTLHIPDFRSAEKTFQLLTQVSGRAGRHEKPGHVIIQTYTPSHYSIQLTKTHDYETFYQHEMAHRREQSYPPYYYLALVTVSHEEVAKAAVTAEKIAHFLKANCGADTKILGPSASPIARIKDRYRYQCVIKYKQETQLSALLKKILEHYKREIEQKHVMISIDMNPYMMM",binds
2,"σ^B, co-purified with RNAP (protein, UniProt P06574 1-262) MTQPSKTTKLTKDEVDRLISDYQTKQDEQAQETLVRVYTNLVDMLAKKYSKGKSFHEDLRQVGMIGLLGAIKRYDPVVGKSFEAFAIPTIIGEIKRFLRDKTWSVHVPRRIKELGPRIKMAVDQLTTETQRSPKVEEIAEFLDVSEEEVLETMEMGKSYQALSVDHSIEADSDGSTVTILDIVGSQEDGYERVNQQLMLQSVLHVLSDREKQIIDLTYIQNKSQKETGDILGISQMHVSRLQRKAVKKLREALIEDPSMELM",binds

# From paper PMC7749165, “The δ subunit and NTPase HelD institute a two-pronged mechanism for RNA polymerase recycling” (Nature Communications, 2020)
